Test results as given in publication PMC9858354.
No constants are given. Whether binding was seen depends on the method and setting.

T1: mouse C-C motif chemokine receptor-like 2 (CCRL2) isoform b, on HEK-muCCRL2 cells (mouse) (UniProt O35457)
T1 sequence: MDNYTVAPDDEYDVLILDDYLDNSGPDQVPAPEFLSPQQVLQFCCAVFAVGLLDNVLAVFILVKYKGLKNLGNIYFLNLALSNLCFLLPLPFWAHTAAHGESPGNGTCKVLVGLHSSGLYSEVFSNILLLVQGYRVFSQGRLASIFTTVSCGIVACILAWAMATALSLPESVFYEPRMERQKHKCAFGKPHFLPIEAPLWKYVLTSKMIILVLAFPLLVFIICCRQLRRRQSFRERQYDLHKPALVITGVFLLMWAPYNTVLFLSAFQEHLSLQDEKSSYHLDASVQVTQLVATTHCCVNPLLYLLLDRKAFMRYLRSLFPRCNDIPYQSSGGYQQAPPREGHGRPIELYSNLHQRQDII

T2: human C-C motif chemokine receptor-like 2 (CCRL2) isoform b, on HEK-huCCRL2 cells (human) (UniProt O00421)
T2 sequence: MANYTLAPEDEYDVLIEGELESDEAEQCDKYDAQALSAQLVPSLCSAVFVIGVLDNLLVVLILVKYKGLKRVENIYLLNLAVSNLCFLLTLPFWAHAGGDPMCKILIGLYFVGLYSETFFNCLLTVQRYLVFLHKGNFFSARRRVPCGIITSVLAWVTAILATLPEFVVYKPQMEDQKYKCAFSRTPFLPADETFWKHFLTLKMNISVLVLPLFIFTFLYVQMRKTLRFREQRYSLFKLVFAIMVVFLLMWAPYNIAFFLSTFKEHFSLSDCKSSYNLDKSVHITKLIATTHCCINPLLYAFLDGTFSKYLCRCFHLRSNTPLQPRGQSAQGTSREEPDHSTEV


Assays:
[1] = biological target: T1, mouse C-C motif chemokine receptor-like 2 (CCRL2) isoform b, on HEK-muCCRL2 cells (mouse); assay: flow cytometry on cells; serially diluted biotin-labeled ligand on HEK-huCCRL2, HEK-muCCRL2 or parental HEK cells (2x10^4 cells/well, 384-well), PBS + 0.1% BSA, 4°C 45 min, detected with RRX-streptavidin; MFI normalized to parental HEK cell binding; EC50 from four-parameter fit; only the binder purified
[2] = biological target: T2, human C-C motif chemokine receptor-like 2 (CCRL2) isoform b, on HEK-huCCRL2 cells (human); assay: as above

Binder | binding [1] | binding [2]
biotin-labeled murine CCL8 (ligand, UniProt Q9Z121 24-97, biotin (EZ-Link Sulfo-NHS-LC-Biotin, biotin-to-analyte molar ratio 5:1)) GPDKAPVTCCFHVLKLKIPLRVLKSYERINNIQCPMEAVVFQTKQGMSLCVDPTQKWVSEYMEILDQKSQILQP | no binding | –
biotin-labeled murine CCL19 (ligand, UniProt O70460 26-108, biotin (EZ-Link Sulfo-NHS-LC-Biotin, biotin-to-analyte molar ratio 5:1)) GANDAEDCCLSVTQRPIPGNIVKAFRYLLNEDGCRVPAVVFTTLRGYQLCAPPDQPWVDRIIRRLKKSSAKNKGNSTRRSPVS | no binding | –
biotin-labeled human CCL18 (ligand, UniProt P55774 21-89, biotin (biotin-labeled human ligands of Fig 1A; EZ-Link Sulfo-NHS-LC-Biotin)) AQVGTNKELCCLVYTSWQIPQKFIVDYSETSPQCPKPGVILLTKRGRQICADPNKKWVQKYISDLKLNA | – | no binding
